Measured values: patent US20260177556A1, “PROXIMITY-BASED LABELING OF SIALYLATED GLYCOPROTEINS” (THE TRUSTEES OF PRINCETON UNIVERSITY, priority 2022, published 2026)
At least one structure is not confirmed: it was looked up by name or label, or the drawing left a doubt.

Test system: sialylated cell-surface glycoproteins of HeLa cells
Assay: Glycomap labeling efficiency by streptavidin western blot densitometry
Assay type: cell-based
Conditions: streptavidin-stained western blot
Procedure: HeLa cells (approx. 0.4×10^6 cells) were incubated in 6 well dishes in complete DMEM (2 mL) containing Ac4ManNAz (100 μM) at 37° C. for 72 hours. The cells were washed with DPBS (3×1 mL) and then incubated in complete DMEM (2 mL) containing DBCO-iridium (5 μM) or DBCO-biotin (5 μM) at 37° C. for 24 hours. The cells were washed with DPBS (3×1 mL) and irradiated in DMEM (no phenol-red, 200 μL) containing biotin-diazirine (250 μM) at room temperature for 20 minutes in the biophotoreactor (blue LEDs). The cells were washed with DPBS (3×1 mL), scraped in DPBS (1 mL), and transferred to 1.5 mL Eppendorf tubes. The cells were pelleted at 400×G for 5 minutes and resuspended in Ripa lysis buffer (500 μL). […] The protein concentration was normalized by BCA assay and the lysate was analyzed by Western blot (20 μg of protein per lane, 12% gel, 150 V). […]
Based on the Western blot results shown in FIG. 2B the efficiency of labeling via Glycomap can be calculated using densitometry. […]
The whole calculation is listed below: • Densitometry readout DBCO-Iridium full experiment: 108′442 • Densitometry readout DBCO-Iridium control: 6′164 • Experiment/control: 17.6 • Densitometry readout DBCO-Biotin full experiment: 158′335 • Densitometry readout DBCO-Biotin control: 5′937 • Experiment/control: 26.7 • Comparison: 17.6/26.7=0.7 tags per catalyst.

O=C(CCCC[C@@H]1SC[C@@H]2NC(=O)N[C@@H]21)NCC(C(=O)NCCC(=O)N1Cc2ccccc2C#Cc2ccccc21)S(=O)(=O)O (some centres unmarked) [DBCO-biotin, DBCO-Sulfo-Link-biotin]
Densitometry readout control (control reaction): 5′937
Densitometry readout full experiment (MW range from 45 kDa to top of blot): 158′335
